Results deposited as PubChem BioAssay AID1259254 (NCATS, 2017)

Aim: 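Genome-wide screen for genes that prevent DNA re-replication in cancer cells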 (primary screen)
System: human HCT116 colorectal cancer cells
Knock-down reagent: single siRNA against human genes
Time to read-out: 3 days
Measurement: 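Nuclei stained with Hoechst and imaged; cell-cycle phase assigned by DNA content; G2 share scaled per plate, non-targeting siRNA 0%, GMNN siRNA 100%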
Scale: G2 robust z-score and G2 cells, % of GMNN control: higher = more G2 cells, more excess DNA replication
Hit rule: 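Active siRNAs have a G2 robust z of 5 or more median absolute deviations over the median, which in these data means about 38% or higher of GMNN control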
This is a random part of about 59,000 reagents tested. About 1,550 of all reagents (2.6%) count as active. 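G2 share is only a proxy for re-replication; each gene was hit by three separate siRNAs, and active genes were retested.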 Entries without a mark were called inactive. The numbers tell different reagents against one gene apart. Further read-outs or replicates are left out here. No sequences are given here. Not stated in the record: the amount of reagent.

| Gene | siRNA no. | G2 robust z-score | G2 cells, % of GMNN control |
| --- | --- | --- | --- |
| IFT46 (intraflagellar transport 46) | 1 | -0.284 | 0.966 |
| IFT46 (intraflagellar transport 46) | 2 | 0.415 | 5.89 |
| IFT46 (intraflagellar transport 46) | 3 | -0.113 | 2.17 |
| PCDHA12 (protocadherin alpha 12) | 1 | -0.214 | 1.46 |
| PCDHA12 (protocadherin alpha 12) | 2 | -0.828 | -2.86 |
| PCDHA12 (protocadherin alpha 12) | 3 | -0.179 | 1.7 |
| AHI1 (Abelson helper integration site 1) | 1 | -0.636 | -1.51 |
| AHI1 (Abelson helper integration site 1) | 2 | -0.543 | -0.85 |
| AHI1 (Abelson helper integration site 1) | 3 | 4.2 | 32.5 |
| DBR1 (debranching RNA lariats 1) | 1 | -1.12 | -4.93 |
| DBR1 (debranching RNA lariats 1) | 2 | 6.11 (active) | 46 |
| DBR1 (debranching RNA lariats 1) | 3 | -0.127 | 2.07 |
| CAPN7 (calpain 7) | 1 | -0.927 | -3.56 |
| CAPN7 (calpain 7) | 2 | -0.575 | -1.08 |
| CAPN7 (calpain 7) | 3 | 0.481 | 6.35 |
| TSACC (TSSK6 activating cochaperone) | 1 | -0.737 | -2.22 |
| TSACC (TSSK6 activating cochaperone) | 2 | 2.62 | 21.4 |
| TSACC (TSSK6 activating cochaperone) | 3 | 0.239 | 4.65 |

Continued, starting with the last 2 of the part before.
| Gene | siRNA no. | G2 robust z-score | G2 cells, % of GMNN control |
| --- | --- | --- | --- |
| TSACC (TSSK6 activating cochaperone) | 2 | 2.62 | 21.4 |
| TSACC (TSSK6 activating cochaperone) | 3 | 0.239 | 4.65 |
| GBGT1 | 1 | -0.739 | -2.23 |
| GBGT1 | 2 | 0.0998 | 3.67 |
| GBGT1 | 3 | 0.848 | 8.93 |
| ZNF658 (zinc finger protein 658) | 1 | 0.406 | 5.83 |
| ZNF658 (zinc finger protein 658) | 2 | -0.314 | 0.761 |
| ZNF658 (zinc finger protein 658) | 3 | 3.63 | 28.5 |
| LSMEM2 (leucine rich single-pass membrane protein 2) | 1 | 0.154 | 4.05 |
| LSMEM2 (leucine rich single-pass membrane protein 2) | 2 | 0.236 | 4.63 |
| LSMEM2 (leucine rich single-pass membrane protein 2) | 3 | -0.311 | 0.782 |
| PLXNA4 (plexin A4) | 1 | 0.0803 | 3.53 |
| PLXNA4 (plexin A4) | 2 | -0.0609 | 2.54 |
| PLXNA4 (plexin A4) | 3 | 1.7 | 14.9 |
